For 1 molecule, binding results are on record in publication PMC5990496.

Amino acid sequences for entries named in this document (tags omitted). A change or cut given only in a name is not applied to a line headed by its entry.
UniProt Q8N960: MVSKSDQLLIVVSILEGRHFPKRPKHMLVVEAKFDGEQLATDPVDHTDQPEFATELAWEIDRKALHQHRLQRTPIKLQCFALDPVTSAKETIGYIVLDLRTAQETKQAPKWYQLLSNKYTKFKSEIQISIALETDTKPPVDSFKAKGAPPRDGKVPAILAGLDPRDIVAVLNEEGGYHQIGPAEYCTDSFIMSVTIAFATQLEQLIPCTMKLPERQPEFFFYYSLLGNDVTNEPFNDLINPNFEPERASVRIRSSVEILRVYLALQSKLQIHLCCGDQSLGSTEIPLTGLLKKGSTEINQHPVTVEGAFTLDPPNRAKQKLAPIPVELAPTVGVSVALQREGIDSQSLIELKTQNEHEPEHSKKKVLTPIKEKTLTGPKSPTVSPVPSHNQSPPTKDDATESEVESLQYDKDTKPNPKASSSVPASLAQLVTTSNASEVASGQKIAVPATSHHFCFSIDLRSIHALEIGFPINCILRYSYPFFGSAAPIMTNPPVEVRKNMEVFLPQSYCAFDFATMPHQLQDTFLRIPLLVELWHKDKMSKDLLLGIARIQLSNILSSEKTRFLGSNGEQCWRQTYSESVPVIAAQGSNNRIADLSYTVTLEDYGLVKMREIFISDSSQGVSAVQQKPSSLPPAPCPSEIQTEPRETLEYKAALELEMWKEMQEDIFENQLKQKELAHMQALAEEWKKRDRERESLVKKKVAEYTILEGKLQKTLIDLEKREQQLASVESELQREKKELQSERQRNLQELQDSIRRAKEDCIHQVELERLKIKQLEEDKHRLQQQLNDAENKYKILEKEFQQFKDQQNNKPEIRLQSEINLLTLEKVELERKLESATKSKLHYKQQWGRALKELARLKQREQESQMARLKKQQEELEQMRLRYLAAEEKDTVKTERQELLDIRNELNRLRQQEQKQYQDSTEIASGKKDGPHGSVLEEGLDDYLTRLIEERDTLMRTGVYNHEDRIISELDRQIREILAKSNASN

These are yes or no findings as the source states them, for the method shown. In cells and extracts the contact can be indirect. A result given as binding can be weak or reduced; the word gives no strength. Where a sequence is shown, tags or fusion partners need not be part of it.

This test concerns the target tagged CEP120 with C2B deletion (human) (UniProt Q8N960). Briefly: co-IP; overexpressed, tagged versions of centrobin and CEP120, from cell extracts, at 4°C; which protein was precipitated is not told.

B1: tagged centrobin (overexpressed, for co-immunoprecipitation) (protein, UniProt Q8N137 1-903)
chain: MATSADSPSSPLGAEDLLSDSSEPPGLNQVSSEVTSQLYASLRLSRQAEATARAQLYLPSTSPPHEGLDGFAQELSRSLSVGLEKNLKKKDGSKHIFEMESVRGQLQTMLQTSRDTAYRDPLIPGAGSERREEDSFDSDSTATLLNTRPLQDLSPSSSAQALEELFPRYTSLRPGPPLNPPDFQGLRDALDSEHTRRKHCERHIQSLQTRVLELQQQLAVAVAADRKKDTMIEQLDKTLARVVEGWNRHEAERTEVLRGLQEEHQAAELTRSKQQETVTRLEQSLSEAMEALNREQESARLQQRERETLEEERQALTLRLEAEQQRCCVLQEERDAARAGQLSEHRELETLRAALEEERQTWAQQEHQLKEHYQALQEESQAQLEREKEKSQREAQAAWETQHQLALVQSEVRRLEGELDTARRERDALQLEMSLVQARYESQRIQLESELAVQLEQRVTERLAQAQESSLRQAASLREHHRKQLQDLSGQHQQELASQLAQFKVEMAEREERQQQVAEDYELRLAREQARVCELQSGNQQLEEQRVELVERLQAMLQAHWDEANQLLSTTLPPPNPPAPPAGPSSPGPQEPEKEERRVWTMPPMAVALKPVLQQSREARDELPGAPPVLCSSSSDLSLLLGPSFQSQHSFQPLEPKPDLTSSTAGAFSALGAFHPDHRAERPFPEEDPGPDGEGLLKQGLPPAQLEGLKNFLHQLLETVPQNNENPSVDLLPPKSGPLTVPSWEEAPQVPRIPPPVHKTKVPLAMASSLFRVPEPPSSHSQGSGPSSGSPERGGDGLTFPRQLMEVSQLLRLYQARGWGALPAEDLLLYLKRLEHSGTDGRGDNVPRRNTDSRLGEIPRKEIPSQAVPRRLATAPKTEKPPARKKSGHPAPSSMRSRGGVWR
Regarding B1, the binding result is given as “binds”.
